These are yes or no findings as the source states them, for the method shown. A result given as binding can be weak or reduced; the word gives no strength.
Experiments:
[1] = target: OnFT (Oncidium orchid FT), yeast two-hybrid fusion (Oncidium Gower Ramsey) (UniProt B2LU35); assay: two-hybrid; directed test of pairs in yeast (Fig 7B): FT proteins against pAD:PaFD, its deletion and point mutants; AtFT with AtFD as positive control
[2] = target: Hd3a (Heading date3a), yeast two-hybrid fusion (rice) (UniProt Q93WI9); assay: as above
[3] = target: RFT1, yeast two-hybrid fusion (rice) (UniProt Q8VWH2); assay: as above
[4] = target: PaFT1 (Phalaenopsis aphrodite FLOWERING LOCUS T1), yeast two-hybrid bait pBD:PaFT1 (Phalaenopsis aphrodite subsp. formosana); assay: as above
[5] = target: AtFT (Arabidopsis FLOWERING LOCUS T), yeast two-hybrid fusion (Arabidopsis) (UniProt Q9SXZ2); assay: as above
[6] = target: AtTSF, yeast two-hybrid fusion (Arabidopsis) (UniProt Q9S7R5); assay: as above
[7] = target: PaFT1 (Phalaenopsis aphrodite FLOWERING LOCUS T1), yeast two-hybrid bait pBD:PaFT1 (Phalaenopsis aphrodite subsp. formosana); assay: two-hybrid; library screen in yeast: bait pBD:PaFT1 (pBD-GAL4 Cam) against a GAL4 AD cDNA library from young spikes of P. aphrodite subsp. formosana; X-gal filter assay

Sequences of proteins named here, by UniProt entry; tags and fusion partners are left off.
UniProt Q93WI9: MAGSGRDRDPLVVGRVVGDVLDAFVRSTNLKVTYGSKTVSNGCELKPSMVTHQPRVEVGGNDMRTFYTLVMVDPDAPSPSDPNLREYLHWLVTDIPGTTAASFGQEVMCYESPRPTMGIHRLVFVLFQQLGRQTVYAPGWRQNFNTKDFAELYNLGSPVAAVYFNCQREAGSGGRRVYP
UniProt Q8VWH2: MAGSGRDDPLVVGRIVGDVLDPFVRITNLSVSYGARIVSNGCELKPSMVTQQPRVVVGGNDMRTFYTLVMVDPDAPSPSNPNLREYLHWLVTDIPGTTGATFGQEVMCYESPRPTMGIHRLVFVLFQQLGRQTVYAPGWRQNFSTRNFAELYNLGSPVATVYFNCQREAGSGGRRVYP
UniProt Q9SXZ2: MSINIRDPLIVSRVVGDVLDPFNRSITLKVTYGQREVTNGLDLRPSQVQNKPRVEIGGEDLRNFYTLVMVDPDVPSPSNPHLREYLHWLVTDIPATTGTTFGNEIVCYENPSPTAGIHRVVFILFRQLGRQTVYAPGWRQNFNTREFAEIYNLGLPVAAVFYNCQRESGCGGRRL
UniProt Q9S7R5: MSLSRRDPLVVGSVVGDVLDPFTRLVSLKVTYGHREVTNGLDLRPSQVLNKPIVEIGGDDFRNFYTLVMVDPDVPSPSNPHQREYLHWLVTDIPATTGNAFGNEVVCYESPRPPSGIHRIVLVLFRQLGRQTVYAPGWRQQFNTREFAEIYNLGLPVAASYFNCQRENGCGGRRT

Measured: binding

PaFD, yeast two-hybrid prey pAD:PaFD (from UniProt A0A0N7AL13)
binds: all assays above
